At least one compound was matched to its structure with a doubt left.
Legend:
[1] = system: L3.6pl pancreatic cancer cells; assay: Tumorigenicity after in vitro pre-treatment and orthotopic implantation; format: in vivo, mice; conditions: 4 days of pretreatment; PET day 30, histology day 35
Method: After 96 hours of pretreatment, the remaining viable cells were orthotopically implanted into the pancreas of mice, which received no further treatment in vivo.
Cultivated pancreatic cancer cells were exposed to either Gemcitabine alone representing clinical standard therapy, SB431542 alone, or a combination of Gemcitabine and SB431542 in the above given respective concentrations. After 96 hours of pretreatment, the remaining viable cells were orthotopically implanted into the pancreas of mice, which received no further treatment in vivo.
A prerequisite of CSC is their ability to form tumours in secondary recipients. […] Tumorigenicity was first determined by PET scans on day 30 (FIGS. 20B, 20C; left panel) and by final macroscopic and microscopic histological evaluation on day 35 (FIGS. 20B, 20C; right panel).
Animals and Orthotopic Implantation of Tumour Cells. […] Size and weight of the pancreatic tumours were monitored.
(§1) In vitro treatment of pancreatic cancer cells. […] For the evaluation of the in vivo tumorigenicity, […] L3.6pl cells were pretreated with the respective regimen and the remaining viable cells were orthotopically implanted into the pancreas of nude mice and evaluated on day 35. […]

pancreatic CSC spheres = assay: CSC-enriched tumour sphere assay; format: cell-based, human; conditions: ultra low adhesion 6-well plates
Method: First, pancreatic CSC were clonally expanded as CSC-enriched spheres (FIGS. 18C1-18C5). Floating spheres were treated in ultra low adhesion 6-well plates. After completion of the treatment, five randomly selected high-power fields were analyzed.
(§2) Human pancreatic cancer cell line. The highly metastatic human pancreatic cell line L3.6pl was maintained in DMEM medium (Invitrogen, Karlsruhe, Germany) with 12% Fetal Calf Serum (Biochrom, Berlin, Germany), Glutamax (Invitrogen), non-essential amino acids, and vitamins (all from PAN, Aidenbach, Germany) (Hermann et al., 2007, supra). Cultures were kept no longer than 4 weeks after recovery from frozen stocks. CSC spheres were cultured in DMEM-F12 supplemented with B27 (Gibco, Karlsruhe, Germany) and FGF-2 (PeproTech EC, London, United Kingdom) (Hermann et al., 2007, supra).

pancreatic cancer cells = assay: Transmigration assay (modified Boyden chamber, SDF-1 stimulus); format: cell-based, human; conditions: SDF-1 as migratory stimulus
[2] = system: CD133+ pancreatic cancer stem cells (L3.6pl cells); assay: CD133 content by flow cytometry in L3.6pl pancreatic cancer cells; format: cell-based, human; conditions: 48 hours of therapy; Gemcitabine 100 ng/ml
Method: In this experiment, potentially effective substances for the targeted elimination of CD133^+ pancreatic cancer stem cells (CSC) were screened by means of flow cytometry following 48 hours of therapy. […] As a Gemcitabine concentration of 100 ng/ml was the lowest concentration capable of achieving a strong relative enrichment for CD133^+ cells through depletion of CD133^− cells, this concentration was chosen for subsequent experiments.
as §2
Cytometry. […]
as §1

[3] = system: CD133+ cancer stem cells in tumour cell lines; assay: CD133 content by flow cytometry in tumour cell lines after 48 hours of in-vitro treatment; format: cell-based, human; conditions: 100 ng/ml Gemcitabine, 100 ng/ml Rapamycin, 10 μM Cyclopamine, separately or triple combination
Method: As a first step the content of cancer stem cells (measured as “CD 133-content”) in the whole population of tumour cells was measured by flow cytometry (FIGS. 1A-1C).
As a first step the content of cancer stem cells (measured as “CD 133-content”) within the entire tumour cell population was measured by flow cytometry (FIGS. 10A-10C).

CO[C@H]1C[C@@H]2CC[C@@H](C)[C@@](O)(O2)C(=O)C(=O)N2CCCC[C@H]2C(=O)O[C@H]([C@H](C)C[C@@H]2CC[C@@H](O)[C@H](OC)C2)CC(=O)[C@H](C)/C=C(\C)[C@@H](O)[C@@H](OC)C(=O)[C@H](C)C[C@H](C)/C=C/C=C/C=C/1C [Rapamycin]
tumour take rate / tumorigenicity [1]: neither Cyclopamine nor Rapamycin monotherapy significantly affected tumour take rates
tumour spheres / CD133+ cells in CSC-enriched spheres (pancreatic CSC spheres): reduction of tumour spheres
migratory activity (pancreatic cancer cells): unable to significantly reduce
CD133+ cell content [2]: moderate, albeit significant decrease
content of cancer stem cells (CD 133-content) [3]: None of the investigated molecules (Gemcitabine, Rapamycin and Cyclopamine) was capable of significantly reducing

— US20110151020A1, “ACTIVE SUBSTANCE COMBINATION WITH GEMCITABINE FOR THE TREATMENT OF EPITHELIAL CANCER” (priority 2008, published 2011)
